Measured values from patent US12055536B2, “Device for detection of cellular stress” (Trustees of Boston University, priority 2021, dated 2024).

Tested on: SKOV3 cells
Assay: Cell viability assay (dose-response)
Format: cell-based, human
Conditions: read-out: IC50 for cisplatin
Experimental: Cell viability was measured by MTS assay (Abcam, #ab197010) or by CellTiter-Glo™ assay (Promega, #G7570). Cells were seeded at 96-well plates at densities of 2000˜5000 cells per well overnight. Treatment was added to the cells at indicated concentrations for 72 h. Cell viability was measured by incubating with MTS reagent for 4 h and reading absorbance at 490 nm or incubating with CellTier-Glo™ reagent for 10 min and reading luminescence by a plate reader. Six replicates were used for each group.
In addition, isogenic PEO1/PEO4 cell lines derived from the same patient were studied, at the time of a platinum sensitive (PEO1) and platinum resistant-recurrence (PEO4).
Having shown decreased glucose-derived anabolism and increased fatty acid uptake in cisplatin-resistant ovarian cancer cells, whether this metabolic feature can be used for differentiation of cisplatin-resistant from cisplatin-sensitive cancer cells was explored. […] In Table 2 below, quantitation of glucose-d7 (G-d7), PA-d31, and OA-d34 are shown as area fraction of C-D signal out of total cellular area, in mean values.

N.N.[Cl][Pt][Cl] [cisplatin]
IC50: 10.1 µM
